Values from PubChem BioAssay AID652259 (Drosophila RNAi Screening Center, 2013).
The screen tested about 22,000 reagents; shown is an unselected part of those that have a named target and a result. Of all reagents, 233 (1.1%) were called active. 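Light values are raw, unnormalised plate reads; the ratio scores behind the reporter calls were not deposited.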 The numbers tell different reagents against one gene apart. The record does not give: the amount of reagent, the time to read-out, the dose of the treatment.

Screen: 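Identify new Wingless signalling regulators in fly cells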 (primary screen)
System: Drosophila clone 8 imaginal disc epithelial cells
Reagent: long dsRNA against Drosophila genes
Conditions: pathway stimulated by co-transfected Wingless expression plasmid
Read-out: 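Dual luciferase reads per well after Wingless plasmid stimulation: reporter firefly light and Renilla control light; activity is firefly divided by Renilla, a ratio not deposited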
Scale: firefly reporter light: higher = more Wg reporter light, before normalisation; Renilla control light: higher = more transfected or surviving cells
Rule for the call: 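a knock-down is a candidate when at least two out of four statistical tests show it departing from its plate mean; one test alone signals a weak candidate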
Meaning of the calls: active = candidate regulator (raises or lowers reporter); inactive = not a candidate

Silencing of CG4619 resulted in: firefly reporter light, replicate 1 = 8137; Renilla control light, replicate 1 = 1696; inactive. Knock-down of Nepl15 resulted in: firefly reporter light, replicate 1 = 1792; firefly reporter light, replicate 2 = 5307; Renilla control light, replicate 1 = 1207; Renilla control light, replicate 2 = 2417; inactive. Silencing of Jhe gave: firefly reporter light, replicate 1 = 2136; Renilla control light, replicate 1 = 1643; inactive. With knock-down of Poxn #1, the record shows firefly reporter light, replicate 1 = 23617; Renilla control light, replicate 1 = 19557; inactive. Knock-down of Poxn #2 resulted in: firefly reporter light, replicate 1 = 6423; Renilla control light, replicate 1 = 3200; inactive. Against SMC6, the entry reads firefly reporter light, replicate 1 = 26122; Renilla control light, replicate 1 = 21712; inactive.

Depletion of Ac3 resulted in: firefly reporter light, replicate 1 = 9697; Renilla control light, replicate 1 = 2027; inactive. Silencing of MED20 came out at: reporter change call, replicate 1 = Wg reporter activity raised; firefly reporter light, replicate 1 = 4952; firefly reporter light, replicate 2 = 12594; Renilla control light, replicate 1 = 724; Renilla control light, replicate 2 = 2786; inactive. Cdc2rk scored firefly reporter light, replicate 1 = 2539; firefly reporter light, replicate 2 = 7571; Renilla control light, replicate 1 = 731; Renilla control light, replicate 2 = 2133; inactive. fd59A gave firefly reporter light, replicate 1 = 10022; Renilla control light, replicate 1 = 2488; inactive. For RagC-D, the entry reads firefly reporter light, replicate 1 = 15720; Renilla control light, replicate 1 = 4853; inactive. For dnr1 #1, the values are firefly reporter light, replicate 1 = 19596; Renilla control light, replicate 1 = 11105; inactive.

dnr1 #2 gave firefly reporter light, replicate 1 = 3221; firefly reporter light, replicate 2 = 7195; Renilla control light, replicate 1 = 531; Renilla control light, replicate 2 = 1824; inactive.

2 successive records already listed:
Ac3: firefly reporter light, replicate 1 = 9697; Renilla control light, replicate 1 = 2027; activity call = inactive
MED20: reporter change call, replicate 1 = Wg reporter activity raised; firefly reporter light, replicate 1 = 4952; firefly reporter light, replicate 2 = 12594; Renilla control light, replicate 1 = 724; Renilla control light, replicate 2 = 2786; activity call = inactive

More results:
CG18662 gave firefly reporter light, replicate 1 = 3483; firefly reporter light, replicate 2 = 8513; Renilla control light, replicate 1 = 832; Renilla control light, replicate 2 = 3600; inactive. Depletion of Uba5 gave: firefly reporter light, replicate 1 = 21176; Renilla control light, replicate 1 = 10380; inactive. CR33319 showed firefly reporter light, replicate 1 = 23964; Renilla control light, replicate 1 = 13905; inactive. CG42360 gave firefly reporter light, replicate 1 = 1796; firefly reporter light, replicate 2 = 7958; Renilla control light, replicate 1 = 547; Renilla control light, replicate 2 = 2554; inactive. Knock-down of nec gave: firefly reporter light, replicate 1 = 2310; firefly reporter light, replicate 2 = 8443; Renilla control light, replicate 1 = 633; Renilla control light, replicate 2 = 3299; inactive. With knock-down of CG43127, the screen gave firefly reporter light, replicate 1 = 3744; Renilla control light, replicate 1 = 1261; inactive.

After knock-down of Gart, the screen gave firefly reporter light, replicate 1 = 4151; firefly reporter light, replicate 2 = 4295; Renilla control light, replicate 1 = 944; Renilla control light, replicate 2 = 1746; inactive. Against Grip75 the deposit lists firefly reporter light, replicate 1 = 1965; firefly reporter light, replicate 2 = 7248; Renilla control light, replicate 1 = 549; Renilla control light, replicate 2 = 2967; inactive. Depletion of Vps39 gave: firefly reporter light, replicate 1 = 3613; firefly reporter light, replicate 2 = 7971; Renilla control light, replicate 1 = 1357; Renilla control light, replicate 2 = 2000; inactive. Dlic gave firefly reporter light, replicate 1 = 2752; firefly reporter light, replicate 2 = 4985; Renilla control light, replicate 1 = 951; Renilla control light, replicate 2 = 2193; inactive. Depletion of cort came out at: firefly reporter light, replicate 1 = 3060; Renilla control light, replicate 1 = 428; inactive. Knock-down of Ublcp1 came out at: firefly reporter light, replicate 1 = 2448; firefly reporter light, replicate 2 = 5536; Renilla control light, replicate 1 = 1136; Renilla control light, replicate 2 = 1768; inactive.
